Converted amounts (≈) assume the structure as drawn.
Test system: S. aureus F-597
Experiment: Antibacterial activity (MIC, agar dilution, standard method of Japan Society of Chemotherapy) against S. aureus F-597**
Type: cell-based
Details: Staphylococcus aureus, MRSA, 20 h
Excerpt: According to the standard method of Japan Society of Chemotherapy [CHEMOTHERAPY, vol.
**: MRSA (methicillin-resistant S. aureus)

SMILES: O=C(O)c1cn(C2CC2)c2cc(N3CCNCC3)c(F)cc2c1=O [Compound B, 1-cyclopropyl-6-fluoro-7-(1-piperazinyl)-1,4-dihydro-4-oxoquinoline-3-carboxylic acid, reference compound]
- MIC: 6.25 µg/mL (≈ 18.9 µM)

Source: patent US5935952A, “Quinolone- or naphthylidone-carboxylic acid derivates or their salts” (Toyama Chemical Co., LTD., priority 1994, dated 1999)
